{"source": "PubChem BioAssay AID602313", "about": "(National Center for Advancing Translational Sciences (NCATS), 2012)", "note": "Among all 390,000 compounds or so, about 760 (0.19%) were called active. The shares of active, inactive and inconclusive entries below differ from those in the screen. The call rests on the fitted dose curve; in most records, active means well fitted inhibition curve with a large enough effect; inconclusive means small, poorly fitted or top-dose-only effect; inactive means flat fitted curve, though single readings scatter. Where the call is inconclusive, the potency comes from a doubtful curve fit. Potency means the concentration at half of the fitted maximal effect."}
{"test": "qHTS for Inhibitors of Vif-A3F Interactions: qHTS; further: nearly all actives have a fitted effect of over 65% in size; on activity, negative = active: % of control where 0% means no effect", "conditions": "HeLa A3F-eYFP + Vif (tagged APOBEC3F with the HIV-1 protein that degrades it), YFP fluorescence increase; series mostly up to 46.1 µM; activity, negative = active: at the top concentration", "outline": "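HeLa cells stably expressing A3F-eYFP plus Vif, plated and incubated overnight at 37 deg C, then exposed to compounds overnight at 37 deg C. Blocked degradation read as raised yellow fluorescence (Ex 488/Em 500-530).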"}
{"smiles": "O=c1cc(S(=O)(=O)Cc2ccccc2)[nH]c(=O)[nH]1", "Potency": "inconclusive: 5.62 µM [inhibitor, single point]"}
{"smiles": "Cc1cnc(=O)[nH]c1SCC(=O)c1ccc(F)cc1", "activity, negative = active": "inactive: -27.4%"}
{"smiles": "COc1ccc(CNC(=S)NC(C)CCc2ccccc2)cc1", "note": "(stereo not given)", "activity, negative = active": "inactive: 2.29%"}
{"smiles": "COc1cccc(Nc2c3c(nc4nncn24)CCC3)c1", "activity, negative = active": "inactive: -3.7%"}
{"smiles": "NC(=O)C1CCN(C(=O)c2ccc3c(c2)S(=O)(=O)c2ccccc2C3=O)CC1", "Potency": "inconclusive: 3.16 µM [inhibitor, single point]"}
{"smiles": "COc1cccc(NC(=O)Cc2nnc(SCC(=O)NC3=NCCS3)n2C)c1", "Potency": "inconclusive: 12.6 µM [inhibitor, single point]"}
{"smiles": "O=C(Nc1cccc2cccnc12)c1ccccc1Br", "Potency": "inconclusive: 35.5 µM [inhibitor, partial curve, poor fit]"}
{"smiles": "CCOC(=O)C1C(=O)NC(C(=O)OCC)(C(=O)OCC)C1CC", "note": "(stereo not given)", "Potency": "inconclusive: 35.5 µM [inhibitor, single point]"}
{"smiles": "CCc1c(C)nc(SCC(=O)c2cccs2)c(C#N)c1C", "Potency": "inconclusive: 35.5 µM [inhibitor, single point]"}
{"smiles": "Cn1c(=O)c2c(nc(NC3CCCC3)n2C)n(C)c1=O", "Potency": "inconclusive: 6.31 µM [inhibitor, full curve]"}
{"smiles": "CNC(=S)/N=C/NOCc1ccc(Cl)cc1Cl", "Potency": "inconclusive: 11.2 µM [inhibitor, partial curve]"}
{"smiles": "C/C(=N\\NC(=S)NCc1ccccc1)c1ccc(C)o1", "Potency": "inconclusive: 22.4 µM [inhibitor, single point]"}
{"smiles": "Cc1ccc(-n2nc3ccc(N)cc3n2)cc1C", "activity, negative = active": "inactive: 4.62%"}
{"smiles": "COC(=O)C1Cc2c([nH]c3ccccc23)C2(CCN(Cc3ccccc3)CC2)N1", "note": "(stereo not given)", "activity, negative = active": "inactive: 13.5%"}
{"smiles": "O=C(/C=C1\\NC2(CCCC2)Cc2ccccc21)C(=O)N/N=C/c1ccccc1O", "Potency": "inconclusive: 1.78 µM [inhibitor, full curve, poor fit]"}
{"smiles": "Cc1sc2nc(CN3CCCCC3)nc(Cl)c2c1C", "Potency": "inconclusive: 3.55 µM [inhibitor, single point]"}
{"smiles": "Cc1[nH]c2ccccc2c(=O)c1SC(F)(F)C(F)C(F)(F)F", "note": "(stereo not given)", "Potency": "inconclusive: 3.16 µM [inhibitor, partial curve, poor fit]"}
{"smiles": "O=C(CCc1ccccc1)NC(=S)Nc1cccc(Br)c1", "Potency": "inconclusive: 35.5 µM [inhibitor, single point]"}
{"smiles": "COc1cc(S(=O)(=O)NC2CCCC2)ccc1-n1cnnn1", "Potency": "inconclusive: 35.5 µM [inhibitor, single point]"}
{"smiles": "C[C@@H]1CC=C[C@H]2[C@H]1C(=O)N(Cc1ccccc1)[C@H]2c1ccc(-c2ccoc2)cc1F", "Potency": "inconclusive: 35.5 µM [inhibitor, single point]"}
{"smiles": "CCOC(=O)N1CCc2c(sc3c2c(=O)n(-c2ccc(Cl)cc2)c(=O)n3CC(=O)Nc2ccccc2)C1", "activity, negative = active": "inactive: 0.614%"}
{"smiles": "COc1ccc2oc(=O)c(C(=O)Nc3ccccc3C)cc2c1", "activity, negative = active": "inactive: -12.6%"}
{"smiles": "CCc1ccc(-c2csc(-c3cc4cc(Br)ccc4oc3=O)n2)cc1", "Potency": "inconclusive: 5.62 µM [inhibitor, single point]"}
{"smiles": "N#CC1=C(N)OC2=C(CC/C2=C\\c2ccccc2)C1c1ccccc1", "note": "(stereo not given)", "Potency": "inconclusive: 17.8 µM [inhibitor, partial curve, poor fit]"}
{"smiles": "COc1ccc(C2C(C(C)=O)=C(O)C(=O)N2c2nccs2)c(OC)c1", "note": "(stereo not given)", "Potency": "inconclusive: 6.31 µM [inhibitor, single point]"}
{"smiles": "CCc1nnc(NS(=O)(=O)c2ccc(NC(=S)NC(=O)c3ccc(OC)cc3)cc2)s1", "activity, negative = active": "inactive: -18.6%"}
{"smiles": "CCOc1cc(/C=C2\\C(=O)N(CCc3ccc(OC)c(OC)c3)C(C)=C2C(=O)OC)ccc1O", "activity, negative = active": "inactive: 1.79%"}
{"smiles": "Cc1ccc(NC(=S)N=Nc2c(O)[nH]c3ccccc23)cc1", "Potency": "inconclusive: 20 µM [inhibitor, partial curve, poor fit]"}
{"smiles": "NC(=S)N/N=C\\c1c(OCc2ccccc2Cl)ccc2ccccc12", "Potency": "inconclusive: 0.631 µM [inhibitor, full curve, poor fit]"}
{"smiles": "O=C(CSc1ncnc2c1oc1ccccc12)Nc1cccc(Cl)c1", "activity, negative = active": "inactive: 5.53%"}
{"smiles": "CCOc1ccc(CNc2ccc(N3CCCC3)cc2)cc1", "Potency": "inconclusive: 35.5 µM [inhibitor, single point]"}
{"smiles": "CC1=C(C(=O)Nc2ccccc2C)C(c2ccc(C)o2)n2c(s/c(=C/c3ccccc3)c2=O)=N1", "note": "(stereo not given)", "Potency": "inconclusive: 17.8 µM [inhibitor, partial curve, poor fit]"}
{"smiles": "COc1ccccc1C(c1c(N)n(C)c(=O)n(C)c1=O)C(C)[N+](=O)[O-]", "note": "(stereo not given)", "activity, negative = active": "inactive: -21.6%"}
{"smiles": "CCc1nc(N2CCCCC2C)c2oc3ccccc3c2n1", "note": "(stereo not given)", "Potency": "inconclusive: 22.4 µM [inhibitor, single point]"}
{"smiles": "Cc1ccc(CN(C)C(=O)c2ccccc2Oc2ccccc2)o1", "activity, negative = active": "inactive: 18%"}
{"smiles": "O=C(NC(=S)Nc1ccc(Br)cc1)C1CCC1", "Potency": "inconclusive: 11.2 µM [inhibitor, partial curve, poor fit]"}
{"smiles": "CC[n+]1ccc(C[n+]2ccccc2)c2ccccc21", "activity, negative = active": "inactive: 0.774%"}
{"smiles": "Cc1ccc(CC2CC(=O)N(c3ccc(C)cc3)C2=O)cc1", "note": "(stereo not given)", "Potency": "inconclusive: 5.62 µM [inhibitor, single point]"}
{"smiles": "Cc1ccc(S(=O)(=O)Nc2nc3ccccc3nc2NCc2ccco2)cc1", "Potency": "inconclusive: 35.5 µM [inhibitor, single point]"}
{"smiles": "CCC(Oc1ccc(F)cc1)C(=O)Nc1nc(-c2ccc(F)cc2)ns1", "note": "(stereo not given)", "Potency": "inconclusive: 11.2 µM [inhibitor, partial curve]"}
{"smiles": "COc1cc(/C=C(\\C#N)c2nc3ccccc3[nH]2)ccc1OC(=O)c1ccco1", "Potency": "inconclusive: 22.4 µM [inhibitor, partial curve, poor fit]"}
{"smiles": "O=C(NCCCNc1ccc(C(F)(F)F)cc1[N+](=O)[O-])c1ccc(F)cc1", "Potency": "inconclusive: 28.2 µM [inhibitor, single point]"}
{"smiles": "O=C(Cc1csc(NC(=O)Nc2cccc(Cl)c2)n1)NCc1ccccn1", "Potency": "inconclusive: 35.5 µM [inhibitor, single point]"}
{"smiles": "Cc1ccc(CNC(=O)Cn2cc(S(=O)(=O)Cc3ccccc3F)c3ccccc32)cc1", "activity, negative = active": "inactive: -0.848%"}
{"smiles": "COc1cccc(CNC(=O)COC(=O)c2c(NC(C)=O)sc(C)c2C)c1", "Potency": "inconclusive: 3.16 µM [inhibitor, partial curve, poor fit]"}
